Measurements published in publication PMC7819943, “Rice protein-binding microarrays: a tool to detect cis-acting elements near promoter regions in rice”.
The list shows a part of the results.

Chains of the proteins cited; added tags and fusions are not shown.
UniProt Q0JBA9, entry or part of it: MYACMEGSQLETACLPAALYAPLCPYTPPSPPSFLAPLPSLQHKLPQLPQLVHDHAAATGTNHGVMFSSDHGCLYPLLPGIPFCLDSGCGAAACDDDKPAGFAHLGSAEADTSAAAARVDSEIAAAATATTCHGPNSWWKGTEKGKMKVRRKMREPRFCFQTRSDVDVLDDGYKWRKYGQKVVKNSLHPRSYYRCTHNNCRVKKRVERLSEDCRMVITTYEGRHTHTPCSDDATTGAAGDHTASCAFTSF

These sequences were tested against OsWRKY34 (Oryza sativa, UniProt Q0JBA9 1-250) (assay: protein-binding microarray (RPBM); PBS, 2% BSA, 51.3 ng/ul salmon testes DNA, 50 uM zinc acetate, 200 nM TF, 25 C, 1 h; high values mean tight binding). Details: protein: recombinant; tags: N-terminal polyhistidine and DsRed monomer fusion (pET32a); label: CyDye5-dUTP incorporated in the synthesized complementary strand; 3' TTTTT single-stranded linker to array surface; dsDNA, one strand shown.
Summary of the method: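 An Axon 4000B scanner gave the binding signal as per-feature fluorescence intensity in arbitrary units. This followed washing of a custom Agilent array that had been incubated for 1 h at 25 °C with 200 nM protein in PBS, 2% BSA, salmon testes DNA and 50 µM zinc acetate. The proteins were transcription factors fused at the N-terminus to polyhistidine and DsRed, expressed in E. coli BL21-CodonPlus and purified on Ni–NTA.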

In order of falling binding signal:
1. TGGTTTGTTCCCGTCGGATTTTTCTTTTCCACTGTTCGATCGGAGTCACCTAGTGCAG  13000 fluorescence intensity (a.u.)
2. GCTTTTCTTGTATTCCATCCCACGTAGTTTTCCTGTATTTCGGAGTCACCTAGTGCAG  12200 fluorescence intensity (a.u.)
3. CTGCCCTGCTCCACTCCGTCGGCCGCCGTCCTCGCCATCTCGGAGTCACCTAGTGCAG  11800 fluorescence intensity (a.u.)
4. TTCTTATTTATCTTCTTGATATGTGCTTACGGTTGACTTACGGAGTCACCTAGTGCAG  11100 fluorescence intensity (a.u.)
5. ATGTGTTTTCACTCGAGATTTTGGTCCACGTGCTTTTCTGCGGAGTCACCTAGTGCAG  10200 fluorescence intensity (a.u.)
6. CGGTTTTGTGGTTTAGGGCCATGAATTAGATTTCAGTCACCGGAGTCACCTAGTGCAG  9860 fluorescence intensity (a.u.)
7. ACATCTTATCTTCTTCTTCTTCTTCTTCTTCTTCTTCTTCCGGAGTCACCTAGTGCAG  9650 fluorescence intensity (a.u.)
8. CGTGACTTAGGTTTTAAAACTTTTTCATAAATTTTTCTGTCGGAGTCACCTAGTGCAG  9410 fluorescence intensity (a.u.)
9. TCCCTCCGTTTCAGGTTACAAGACGTTTTGACTTTGATGACGGAGTCACCTAGTGCAG  8900 fluorescence intensity (a.u.)
10. TCGAGGAGTGGATGGACGGATGGGTGGGTCATCACTGGTCCGGAGTCACCTAGTGCAG  8840 fluorescence intensity (a.u.)
11. AGGTTCGACCCCATGTACTATGAATCGACATTTATTTGAGCGGAGTCACCTAGTGCAG  8640 fluorescence intensity (a.u.)
12. CCCAGCCCACTCGACACCCACCGAATCCACGCCGCTCAATCGGAGTCACCTAGTGCAG  8600 fluorescence intensity (a.u.)
13. CCTCCGTTTCACAATATAAGTCGTTCTAGCATCAATATGACGGAGTCACCTAGTGCAG  8580 fluorescence intensity (a.u.)
14. GTTTCTATTCACAACGTACACTGTATTGCCCCTATGACATCGGAGTCACCTAGTGCAG  8550 fluorescence intensity (a.u.)
15. CCACCTCGCACCGTCGATCTCCTCCCCACCCGTCGGCCGGCGGAGTCACCTAGTGCAG  8520 fluorescence intensity (a.u.)
16. TTTTGGGCATGTGAGATCTTTTCAAAAGTTTACTTTTAATCGGAGTCACCTAGTGCAG  8480 fluorescence intensity (a.u.)
17. CCTCGCCGGTCGCCTCTCTCATCTCCGCACTCTCCGATCTCGGAGTCACCTAGTGCAG  8360 fluorescence intensity (a.u.)
18. TCAGCCCGCGGCCGTCCTTCTTCTTCCCCACCGCCGCGGCCGGAGTCACCTAGTGCAG  8290 fluorescence intensity (a.u.)
19. CTTCCTCTCTCTCTTCGTCAACACCACTCACTAGCTACTGCGGAGTCACCTAGTGCAG  8270 fluorescence intensity (a.u.)
20. TGCTGCTTTGCTCAATTGCTCTTTGATATTGTTGTTTGTACGGAGTCACCTAGTGCAG  8150 fluorescence intensity (a.u.)
21. TAATGTACCTTAGCTTGCTCTATTTTACTTTATTTTTAACCGGAGTCACCTAGTGCAG  8070 fluorescence intensity (a.u.)
22. CCCCATCGCCGAATCCGCCGCCGCCATCCCCACCACGGGACGGAGTCACCTAGTGCAG  8070 fluorescence intensity (a.u.)
23. CCTTCATTCTCTCTCTCTCTTCTTTCTCTCTCCTCCTTCCCGGAGTCACCTAGTGCAG  8060 fluorescence intensity (a.u.)
